Measured values as given in article PMC6983514, “Investigating the clinical factors and comedications associated with circulating levels of atorvastatin and its major metabolites in secondary prevention” (British Journal of Clinical Pharmacology, 2020).

Columns and labels:
[1] = test system: breast cancer resistance protein (BCRP, encoded by ABCG2); conditions: cited from earlier work
[2] = Main analysis: all subsets multivariable linear regression with BIC model averaging of clinical factors/comedications on ATV analyte levels, ratios and sum total; type: in vivo, human; conditions: log10 transformed plasma concentration, model averaged coefficient
Description: The following 8 endpoints were considered: individual concentrations of ATV and its 3 metabolites, specific analyte ratios (hydroxylation—2‐OH ATV/ATV, 2‐OH ATV L/ATV L; lactonization—ATV L/ATV), and the analyte sum total (ATV + 2‐OH ATV + ATV L + 2‐OH ATV L). […]
Prior to modelling, all endpoints were log10 transformed to normalise the distribution of (observed) residuals and optimise homoscedasticity. Clinical covariate multicollinearity was assessed using the variance inflation factor, which was <1.5 for all covariates, indicating negligible multicollinearity.
Multivariable linear regression was used for covariate selection, as has been done previously with sparse ATV sampling.18 For a given endpoint, first the maximum multivariable linear regression model (containing all 20 covariates) was constructed. […] The utility of the final produced model for describing the observed variation in the endpoint was assessed using the unadjusted R^2 value. […]

B (SE), Sex (F vs M) on analyte level [2] | B (SE), CYP3A inhibitor on analyte level ([2]; moderate/strong CYP3A inhibitor) | Structure (SMILES) | inhibition of BCRP in vitro [1]
– | – | NS(=O)(=O)c1cc(C(=O)O)c(NCc2ccco2)cc1Cl [furosemide] | inhibit
−0.123 (0.034) | 0.166 (0.076) | CC(C)c1c(C(=O)Nc2ccccc2)c(-c2ccccc2)c(-c2ccc(F)cc2)n1CC[C@@H](O)C[C@@H](O)CC(=O)O [ATV, atorvastatin] | –
